The text below walks through data of the supplement of paper PMC12542422.

Experiment [1] has as its system HeLa K (ENP1 immunofluorescence, +LMB). The experiment can be described thus: fraction of cells with nucleolar or nucleolar/nucleoplasmic ENP1 signal (MainHitrate); higher = more cells with nucleolar/nuclear readout signal (for ENP1 -LMB: less RNAPI inhibition; for +LMB ENP1 and RP reporters: stronger nuclear/nucleolar retention, i.e. ribosome biogenesis defect). The following applies: concentration: 1 µM; treatment time: 6 h; ENP1 +LMB; leptomycin B: 20 nM, last 1.5 h.

Experiment [2] relates to HeLa K (ENP1 immunofluorescence, no LMB). The experiment is described as above. The note with it: concentration: 1 µM; treatment time: 6 h; ENP1 -LMB; leptomycin B: none.
The subject of another experiment is HeLa RPS2-YFP reporter. The experiment can be described thus: fraction of reporter-positive cells with nuclear (nucleolar or nucleolar/nucleoplasmic) RPS2-YFP (MainHitrate); higher = more cells with nucleolar/nuclear readout signal (for ENP1 -LMB: less RNAPI inhibition; for +LMB ENP1 and RP reporters: stronger nuclear/nucleolar retention, i.e. ribosome biogenesis defect). The note with it: concentration: 1 µM; treatment time: 6 h.

Another experiment concerns HeLa RPL29-GFP reporter. The experiment in a line: fraction of reporter-positive cells with nuclear (nucleolar or nucleolar/nucleoplasmic) RPL29-GFP (MainHitrate); higher = more cells with nucleolar/nuclear readout signal (for ENP1 -LMB: less RNAPI inhibition; for +LMB ENP1 and RP reporters: stronger nuclear/nucleolar retention, i.e. ribosome biogenesis defect). The following applies: concentration: 1 µM; treatment time: 6 h.

Where a name gives a salt, the structure may show the parent alone. ± gives the standard deviation of the averaged measurements. This is one part of the list. Values are raw readings; no control value is given beside them.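 HeLa cells imaged for ribosome-assembly readouts (ENP1 staining with or without export block, or inducible tagged ribosomal protein reporters); machine learning classified each cell's signal location against solvent (DMSO) controls. Hits exceeded the DMSO false-positive mean by five standard deviations, then were visually confirmed; three biological replicates.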

As for `Cc1cccc(CN2CCN(C(c3ccccc3)c3ccc(Cl)cc3)CC2)c1` (stereo not drawn) [Meclizine 2HCl], the fraction in experiment [1] was 0.0926 ± 0.14; in experiment [2], 0.994 ± 0.011. The “fraction of reporter-positive cells with nuclear” value (shortened to “fraction … with nuclear”) stood at 0.112 ± 0.074 in the experiment with HeLa RPS2-YFP reporter and 0.286 ± 0.076 in the experiment with HeLa RPL29-GFP reporter.

In the case of `CCCCCCOC(=O)NC(=N)c1ccc(NCc2nc3cc(C(=O)N(CCC(=O)OCC)c4ccccn4)ccc3n2C)cc1` [BIBR-1048 (Dabigatran)], the values for the fraction in experiment [1] and in experiment [2] were 0.106 ± 0.15 and 0.993 ± 0.012, respectively. Moreover, the results for the “fraction … with nuclear” value in the experiment with HeLa RPS2-YFP reporter and in the experiment with HeLa RPL29-GFP reporter were 0.126 ± 0.059 and 0.222 ± 0.089, respectively.

On to `CCCCc1oc2ccccc2c1C(=O)c1cc(I)c(OCCN(CC)CC)c(I)c1` [Amiodarone HCl], for which the values for the fraction in experiment [1] and in experiment [2] were 0.112 ± 0.16 and 0.991 ± 0.015, respectively. In addition, the “fraction … with nuclear” value was determined as 0.104 ± 0.067 in the experiment on HeLa RPS2-YFP reporter and 0.235 ± 0.076 in the experiment with HeLa RPL29-GFP reporter.

In the case of `C[N+](C)(C)CCOC(N)=O` [Carbachol], the values for the fraction in experiment [1] and in experiment [2] were 0.0864 ± 0.082 and 0.9978 ± 0.0038, respectively. For the same compound, the “fraction … with nuclear” value worked out at 0.203 ± 0.23 with HeLa RPS2-YFP reporter and 0.302 ± 0.28 with HeLa RPL29-GFP reporter.

As to `Nc1nc(Cl)nc2c1ncn2[C@@H]1O[C@H](CO)[C@@H](O)[C@@H]1F` [Clofarabine], the fraction in experiment [1] amounted to 0.107 ± 0.091; in experiment [2], 0.9963 ± 0.0064. Besides, the “fraction … with nuclear” value in the experiment with HeLa RPS2-YFP reporter came to 0.101 ± 0.054; with HeLa RPL29-GFP reporter, 0.138 ± 0.055.

In the case of `CN1CCN(c2cc3c(cc2F)c(=O)c(C(=O)O)cn3-c2ccc(F)cc2)CC1` [Difloxacin HCl], the fraction in experiment [1] came out at 0.196 ± 0.27; in experiment [2], 0.99983 ± 0.00029. In addition, the “fraction … with nuclear” value in the experiment with HeLa RPS2-YFP reporter came out at 0.182 ± 0.18; in the experiment with HeLa RPL29-GFP reporter, 0.294 ± 0.27.

As to `O=c1ccc2ccccc2o1` [Coumarin], the results for the fraction in experiment [1] and in experiment [2] were 0.0609 ± 0.075 and 0.969 ± 0.053, respectively. The results for the “fraction … with nuclear” value in the experiment on HeLa RPS2-YFP reporter and in the experiment on HeLa RPL29-GFP reporter were 0.101 ± 0.076 and 0.221 ± 0.047, respectively.

In the case of `CC1=C(/C=C/C(C)=C/C=C/C(C)=C\C(=O)O)C(C)(C)CCC1` [Isotretinoin], the fraction in experiment [1] turned out to be 0.0964 ± 0.1; in experiment [2] it was 0.9994 ± 0.0011. For the same compound, the “fraction … with nuclear” value in the experiment on HeLa RPS2-YFP reporter was 0.11 ± 0.062; with HeLa RPL29-GFP reporter, 0.215 ± 0.05.

`OC(Cn1cncn1)(Cn1cncn1)c1ccc(F)cc1F` [Fluconazole]: the figures for the fraction in experiment [1] and in experiment [2] were 0.0477 ± 0.037 and 0.9991 ± 0.0016, respectively. Also, the “fraction … with nuclear” value in the experiment on HeLa RPS2-YFP reporter was found to be 0.0763 ± 0.058; in the experiment with HeLa RPL29-GFP reporter it was 0.21 ± 0.061.

Take `N=C(N)c1ccc(OCCCCCOc2ccc(C(=N)N)cc2)cc1` [Pentamidine]: the fraction in experiment [1] is 0.13 ± 0.2; in experiment [2], 0.979 ± 0.037. Besides, the results for the “fraction … with nuclear” value in the experiment with HeLa RPS2-YFP reporter and in the experiment with HeLa RPL29-GFP reporter were 0.125 ± 0.1 and 0.208 ± 0.065, respectively.

As to `CC(C)(O/N=C(\C(=O)N[C@@H]1C(=O)N2C(C(=O)[O-])=C(C[n+]3ccccc3)CS[C@H]12)c1csc(N)n1)C(=O)O` [Ceftazidime Pentahydrate], the results for the fraction in experiment [1] and in experiment [2] were 0.105 ± 0.14 and 0.9959 ± 0.0071, respectively. For the same compound, the “fraction … with nuclear” value with HeLa RPS2-YFP reporter came to 0.14 ± 0.14; with HeLa RPL29-GFP reporter, 0.316 ± 0.26.

Turning to `CCCS(=O)(=O)Nc1ccc(F)c(C(=O)c2c[nH]c3ncc(-c4ccc(Cl)cc4)cc23)c1F` [Vemurafenib (PLX4032)], the fraction was found to be 0.104 ± 0.13 in experiment [1] and 0.9978 ± 0.0038 in experiment [2]. The results for the “fraction … with nuclear” value with HeLa RPS2-YFP reporter and with HeLa RPL29-GFP reporter were 0.125 ± 0.072 and 0.208 ± 0.091, respectively.

For `CCCc1nc2c(C)cc(-c3nc4ccccc4n3C)cc2n1Cc1ccc(-c2ccccc2C(=O)O)cc1` [Telmisartan (Micardis)], the fraction in experiment [1] was 0.0875 ± 0.1; in experiment [2] it was 0.998 ± 0.0034. Further, the figures for the “fraction … with nuclear” value with HeLa RPS2-YFP reporter and with HeLa RPL29-GFP reporter were 0.0875 ± 0.06 and 0.205 ± 0.067, respectively.

With `C[N+](C)(C)CCCCCC[N+](C)(C)C` [Hexamethonium bromide], the fraction in experiment [1] came out at 0.0713 ± 0.085; in experiment [2], 0.992 ± 0.013. For the same compound, the results for the “fraction … with nuclear” value with HeLa RPS2-YFP reporter and in the experiment on HeLa RPL29-GFP reporter were 0.118 ± 0.086 and 0.278 ± 0.073, respectively.

For the compound `C[C@@](Cc1ccc(O)c(O)c1)(NN)C(=O)O` [Carbidopa], the results for the fraction in experiment [1] and in experiment [2] were 0.148 ± 0.23 and 0.984 ± 0.027, respectively. Further, the figures for the “fraction … with nuclear” value in the experiment on HeLa RPS2-YFP reporter and with HeLa RPL29-GFP reporter were 0.106 ± 0.067 and 0.222 ± 0.066, respectively.

In the case of `CCCN[C@H]1CCc2nc(N)sc2C1` [Pramipexole dihydrochloride monohydrate], the fraction turned out to be 0.101 ± 0.14 in experiment [1] and 0.992 ± 0.015 in experiment [2]. Besides, the “fraction … with nuclear” value came out at 0.13 ± 0.047 in the experiment on HeLa RPS2-YFP reporter and 0.219 ± 0.069 in the experiment on HeLa RPL29-GFP reporter.

For the compound `O=C(CCCCCCC(=O)Nc1ccccc1)NO` [Vorinostat (SAHA)], the fraction in experiment [1] stood at 0.103 ± 0.015; in experiment [2] it was 0.9984 ± 0.0028. For the same compound, the “fraction … with nuclear” value is 0.0856 ± 0.044 with HeLa RPS2-YFP reporter and 0.261 ± 0.097 with HeLa RPL29-GFP reporter.

For the compound `CC1=NN(c2ccc(C)c(C)c2)C(=O)/C1=N\Nc1cccc(-c2cccc(C(=O)O)c2)c1O`, the values for the fraction in experiment [1] and in experiment [2] were 0.109 ± 0.15 and 0.989 ± 0.019, respectively. The “fraction … with nuclear” value came out at 0.111 ± 0.069 in the experiment with HeLa RPS2-YFP reporter and 0.243 ± 0.062 with HeLa RPL29-GFP reporter.

For the compound `COc1ccccc1N1CCN(CCCNc2cc(=O)n(C)c(=O)n2C)CC1` [Urapidil HCl], the fraction in experiment [1] is 0.101 ± 0.14; in experiment [2] it was 0.991 ± 0.015. The “fraction … with nuclear” value with HeLa RPS2-YFP reporter is 0.122 ± 0.061; with HeLa RPL29-GFP reporter it was 0.225 ± 0.073.

As for `CCN(CCCc1ccccc1)CCCc1ccccc1` [Alverine Citrate], the figures for the fraction in experiment [1] and in experiment [2] were 0.0973 ± 0.15 and 0.987 ± 0.023, respectively. Moreover, the figures for the “fraction … with nuclear” value in the experiment with HeLa RPS2-YFP reporter and in the experiment with HeLa RPL29-GFP reporter were 0.124 ± 0.089 and 0.204 ± 0.069, respectively.

For the compound `N[C@@H]1CCCCN(c2c(F)cc3c(=O)c(C(=O)O)cn(C4CC4)c3c2Cl)C1` [Besifloxacin HCl (Besivance)], the fraction in experiment [1] is 0.136 ± 0.18; in experiment [2], 0.977 ± 0.04. In addition, the “fraction … with nuclear” value in the experiment on HeLa RPS2-YFP reporter came out at 0.132 ± 0.083; in the experiment on HeLa RPL29-GFP reporter it was 0.197 ± 0.071.

In the case of `Cc1ccc(C)c(OCCCC(C)(C)C(=O)O)c1` [Gemfibrozil (Lopid)], the fraction is 0.0965 ± 0.11 in experiment [1] and 0.9982 ± 0.0031 in experiment [2]. The “fraction … with nuclear” value in the experiment with HeLa RPS2-YFP reporter was 0.106 ± 0.069; in the experiment on HeLa RPL29-GFP reporter, 0.2 ± 0.062.
